Laboratory results: publication PMC4564936
These are yes or no findings as the source states them, for the method shown.

Protein sequences, listed by entry. Tags and fused reporters are not part of them.
UniProt P0ACD4: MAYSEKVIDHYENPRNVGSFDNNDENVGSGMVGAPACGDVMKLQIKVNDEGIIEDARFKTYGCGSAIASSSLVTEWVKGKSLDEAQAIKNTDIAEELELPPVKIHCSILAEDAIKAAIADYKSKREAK

Molecular target: Escherichia coli IscU (E. coli) (UniProt P0ACD4)
Experiment: condition: only prepared anaerobically with 10 mM TCEP; 3.0 or 6.0 mg/mL; SAXS; prepared in an anaerobic chamber, dialysed against degassed buffer with 10 mM TCEP, sealed sample cell; 3.0 or 6.0 mg/mL; variable temperature; molecular mass by the I(0) and Vc methods; both purified

- binding: no binding
Substance: Escherichia coli IscU (from UniProt P0ACD4 1-128)
